This is an account of results in the supplement of paper PMC7666118.

The chains behind the UniProt entries cited, without tags or fusion partners. Where a name states a change or a piece, a line headed by the entry shows the natural chain unless it says otherwise.
UniProt Q9NPJ3: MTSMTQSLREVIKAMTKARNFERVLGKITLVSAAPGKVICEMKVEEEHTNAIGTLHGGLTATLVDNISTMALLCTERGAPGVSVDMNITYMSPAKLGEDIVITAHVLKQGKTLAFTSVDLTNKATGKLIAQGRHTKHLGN
UniProt O15020, whole entry: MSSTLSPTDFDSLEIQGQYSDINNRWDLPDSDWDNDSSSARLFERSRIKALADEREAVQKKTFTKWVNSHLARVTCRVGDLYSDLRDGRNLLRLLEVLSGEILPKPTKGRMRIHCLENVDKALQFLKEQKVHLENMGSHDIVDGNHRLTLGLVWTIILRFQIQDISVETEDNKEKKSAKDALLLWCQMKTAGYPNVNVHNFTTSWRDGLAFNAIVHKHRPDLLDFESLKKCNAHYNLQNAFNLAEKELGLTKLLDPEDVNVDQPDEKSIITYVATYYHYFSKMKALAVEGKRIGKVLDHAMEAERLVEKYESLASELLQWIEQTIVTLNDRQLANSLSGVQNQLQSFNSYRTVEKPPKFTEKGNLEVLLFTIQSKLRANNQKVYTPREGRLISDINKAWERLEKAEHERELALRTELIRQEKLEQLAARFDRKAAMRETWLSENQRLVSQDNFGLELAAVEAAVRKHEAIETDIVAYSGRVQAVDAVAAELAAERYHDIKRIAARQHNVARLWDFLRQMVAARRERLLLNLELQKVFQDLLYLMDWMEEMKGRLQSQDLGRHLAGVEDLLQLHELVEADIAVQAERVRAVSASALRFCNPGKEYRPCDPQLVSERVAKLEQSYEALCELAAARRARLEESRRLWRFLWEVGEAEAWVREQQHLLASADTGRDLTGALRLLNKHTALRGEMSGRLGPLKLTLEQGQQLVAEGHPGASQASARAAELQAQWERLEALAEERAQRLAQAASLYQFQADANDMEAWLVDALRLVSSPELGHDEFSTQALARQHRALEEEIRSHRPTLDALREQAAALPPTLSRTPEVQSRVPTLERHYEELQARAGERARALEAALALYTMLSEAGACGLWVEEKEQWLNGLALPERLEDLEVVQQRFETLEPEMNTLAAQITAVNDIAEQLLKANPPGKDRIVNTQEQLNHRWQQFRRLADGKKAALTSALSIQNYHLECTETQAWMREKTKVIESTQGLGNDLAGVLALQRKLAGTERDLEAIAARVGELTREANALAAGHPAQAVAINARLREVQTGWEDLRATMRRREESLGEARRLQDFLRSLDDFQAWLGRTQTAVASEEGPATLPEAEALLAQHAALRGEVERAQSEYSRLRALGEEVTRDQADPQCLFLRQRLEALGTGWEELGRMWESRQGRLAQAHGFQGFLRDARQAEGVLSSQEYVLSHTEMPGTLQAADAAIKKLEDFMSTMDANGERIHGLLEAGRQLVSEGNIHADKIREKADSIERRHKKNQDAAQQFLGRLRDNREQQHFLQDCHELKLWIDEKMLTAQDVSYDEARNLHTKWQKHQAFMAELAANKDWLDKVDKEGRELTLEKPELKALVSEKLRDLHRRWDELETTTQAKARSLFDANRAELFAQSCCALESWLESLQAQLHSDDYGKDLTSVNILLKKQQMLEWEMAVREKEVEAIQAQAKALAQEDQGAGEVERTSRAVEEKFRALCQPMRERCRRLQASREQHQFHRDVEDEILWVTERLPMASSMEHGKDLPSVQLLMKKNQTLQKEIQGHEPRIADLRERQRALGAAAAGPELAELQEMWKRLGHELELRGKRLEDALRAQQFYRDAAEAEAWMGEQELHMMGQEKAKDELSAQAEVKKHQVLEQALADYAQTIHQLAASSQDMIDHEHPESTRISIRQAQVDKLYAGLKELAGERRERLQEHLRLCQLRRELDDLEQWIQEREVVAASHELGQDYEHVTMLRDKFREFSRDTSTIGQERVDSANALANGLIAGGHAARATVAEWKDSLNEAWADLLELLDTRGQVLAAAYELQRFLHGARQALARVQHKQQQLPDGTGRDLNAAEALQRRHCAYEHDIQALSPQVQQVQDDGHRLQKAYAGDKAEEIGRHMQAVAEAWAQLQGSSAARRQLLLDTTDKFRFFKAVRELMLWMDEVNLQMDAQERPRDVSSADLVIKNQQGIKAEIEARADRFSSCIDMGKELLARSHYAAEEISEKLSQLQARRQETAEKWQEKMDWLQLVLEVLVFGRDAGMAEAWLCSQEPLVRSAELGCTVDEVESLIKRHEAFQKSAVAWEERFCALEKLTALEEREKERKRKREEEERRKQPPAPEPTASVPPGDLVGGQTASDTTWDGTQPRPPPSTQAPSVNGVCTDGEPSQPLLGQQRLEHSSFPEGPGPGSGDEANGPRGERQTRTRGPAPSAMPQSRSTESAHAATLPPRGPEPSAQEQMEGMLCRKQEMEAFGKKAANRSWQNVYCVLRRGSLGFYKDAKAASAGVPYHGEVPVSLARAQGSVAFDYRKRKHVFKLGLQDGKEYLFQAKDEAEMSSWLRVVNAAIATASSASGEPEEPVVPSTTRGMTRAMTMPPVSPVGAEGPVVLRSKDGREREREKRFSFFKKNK
UniProt Q6NXT6: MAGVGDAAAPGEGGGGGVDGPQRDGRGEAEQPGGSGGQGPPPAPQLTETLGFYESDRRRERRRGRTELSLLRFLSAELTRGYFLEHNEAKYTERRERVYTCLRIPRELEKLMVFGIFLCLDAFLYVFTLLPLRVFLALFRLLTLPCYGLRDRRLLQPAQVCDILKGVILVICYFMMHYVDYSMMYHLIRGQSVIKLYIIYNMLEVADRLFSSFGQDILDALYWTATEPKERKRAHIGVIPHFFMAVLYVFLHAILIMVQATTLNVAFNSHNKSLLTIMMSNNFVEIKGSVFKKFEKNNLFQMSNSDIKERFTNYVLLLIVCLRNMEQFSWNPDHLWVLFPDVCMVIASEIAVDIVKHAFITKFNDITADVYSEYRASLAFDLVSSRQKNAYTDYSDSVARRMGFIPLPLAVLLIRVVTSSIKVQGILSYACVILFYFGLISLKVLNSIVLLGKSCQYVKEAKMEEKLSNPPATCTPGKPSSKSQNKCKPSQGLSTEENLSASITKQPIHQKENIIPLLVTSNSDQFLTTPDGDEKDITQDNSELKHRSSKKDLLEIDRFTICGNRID
UniProt Q11206: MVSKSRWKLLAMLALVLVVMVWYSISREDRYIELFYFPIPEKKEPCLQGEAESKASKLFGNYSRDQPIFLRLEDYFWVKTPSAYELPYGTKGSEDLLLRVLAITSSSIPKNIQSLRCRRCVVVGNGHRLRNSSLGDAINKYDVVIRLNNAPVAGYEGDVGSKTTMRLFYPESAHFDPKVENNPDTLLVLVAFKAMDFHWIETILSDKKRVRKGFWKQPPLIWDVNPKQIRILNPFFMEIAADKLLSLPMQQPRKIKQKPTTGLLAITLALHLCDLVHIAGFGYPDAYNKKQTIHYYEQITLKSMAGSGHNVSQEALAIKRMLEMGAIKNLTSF
UniProt O75529: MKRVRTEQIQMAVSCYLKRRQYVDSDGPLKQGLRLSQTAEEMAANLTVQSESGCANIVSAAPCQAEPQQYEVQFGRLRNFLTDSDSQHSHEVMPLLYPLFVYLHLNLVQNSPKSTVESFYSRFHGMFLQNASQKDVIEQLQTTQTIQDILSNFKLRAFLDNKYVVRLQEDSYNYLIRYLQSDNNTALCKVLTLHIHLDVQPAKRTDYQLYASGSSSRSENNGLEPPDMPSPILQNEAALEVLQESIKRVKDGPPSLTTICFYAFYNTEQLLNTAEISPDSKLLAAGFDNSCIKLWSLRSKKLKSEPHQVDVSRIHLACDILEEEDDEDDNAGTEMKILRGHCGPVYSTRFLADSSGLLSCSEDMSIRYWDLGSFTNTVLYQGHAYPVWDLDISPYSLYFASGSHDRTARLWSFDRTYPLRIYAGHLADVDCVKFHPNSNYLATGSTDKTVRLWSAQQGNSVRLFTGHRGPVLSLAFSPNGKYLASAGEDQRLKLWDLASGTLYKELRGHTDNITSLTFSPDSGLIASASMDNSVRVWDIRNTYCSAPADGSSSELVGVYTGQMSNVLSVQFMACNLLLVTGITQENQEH
UniProt Q04837: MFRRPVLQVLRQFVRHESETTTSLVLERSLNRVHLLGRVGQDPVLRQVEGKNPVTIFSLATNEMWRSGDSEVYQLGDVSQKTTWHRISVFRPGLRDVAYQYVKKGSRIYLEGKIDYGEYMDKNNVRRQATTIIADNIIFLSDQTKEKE
UniProt O43805: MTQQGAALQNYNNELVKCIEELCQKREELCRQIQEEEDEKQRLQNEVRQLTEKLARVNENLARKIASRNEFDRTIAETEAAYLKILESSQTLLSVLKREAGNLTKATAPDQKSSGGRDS
UniProt Q9Y6J9: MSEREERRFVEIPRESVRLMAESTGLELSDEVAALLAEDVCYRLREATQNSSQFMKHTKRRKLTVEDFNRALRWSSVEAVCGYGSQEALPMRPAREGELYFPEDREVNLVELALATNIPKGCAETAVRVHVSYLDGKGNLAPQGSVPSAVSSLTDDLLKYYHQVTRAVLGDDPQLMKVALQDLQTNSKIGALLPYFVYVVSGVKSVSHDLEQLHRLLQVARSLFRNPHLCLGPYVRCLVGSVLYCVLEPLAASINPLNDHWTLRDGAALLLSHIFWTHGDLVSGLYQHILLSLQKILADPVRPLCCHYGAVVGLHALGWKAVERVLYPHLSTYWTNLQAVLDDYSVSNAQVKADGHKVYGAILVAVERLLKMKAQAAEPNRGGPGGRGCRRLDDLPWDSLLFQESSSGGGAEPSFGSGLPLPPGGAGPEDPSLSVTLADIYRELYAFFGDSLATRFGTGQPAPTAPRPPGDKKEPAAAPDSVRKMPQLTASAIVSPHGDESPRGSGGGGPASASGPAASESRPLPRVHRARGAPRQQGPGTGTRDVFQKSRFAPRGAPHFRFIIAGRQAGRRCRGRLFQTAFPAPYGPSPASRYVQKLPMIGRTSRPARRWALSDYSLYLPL

The other results are listed elsewhere or left out.

Compound in the assay: COc1ccc(Cn2ccc3cc(C)c(C(=O)NO)cc32)cc1
As to the kind of experiment: dose-dependent thermal stabilisation call (2D-TPP, DLPTP, 10% FDR) (binary (1 = stabilised)); higher = stabilised by the compound. The note with it: system: HL-60 intact cells; concentration range 0.04-10 µM. Here is the method:
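2D thermal proteome profiling in intact HL-60 cells treated with BRD-3811 (0, 0.04, 0.29, 2, 10 uM) for 90 min at 37 C, then heated 3 min at one of 12 temperatures (42-63.9 C). Soluble protein was quantified by TMT10 MS. The value is the DLPTP call of the paper: dose-dependent thermal stabilisation over all temperatures at 10% FDR (F-test of a dose-response against a flat model); one experiment, one call per tested protein.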
In the case of THEM2 (UniProt Q9NPJ3), the “dose-dependent thermal stabilisation call” value was inactive: 0.
Regarding SPTBN2 (UniProt O15020), the “dose-dependent thermal stabilisation call” value was inactive: 0.
For TAPT1 (UniProt Q6NXT6), the “dose-dependent thermal stabilisation call” value is inactive: 0.
The figure for ST3GAL4 (UniProt Q11206) is inactive: 0; for TAF5L (UniProt O75529) it is inactive: 0.
For the target SSBP1 (UniProt Q04837), the “dose-dependent thermal stabilisation call” value was inactive: 0.
The figure for SSNA1 (UniProt O43805) is inactive: 0.
Consider TAF6L (UniProt Q9Y6J9), for which the “dose-dependent thermal stabilisation call” value was inactive: 0.
